Experimental data reported in patent US20230073368A1, “THERAPY OF RAS-DEPENDENT CANCERS” (Turun Yliopisto, priority 2020, published 2023).
At least one structure is not confirmed: it was looked up by name or label, or the drawing left a doubt.

Tested on: PANC-1 cells
Experiment: Proliferation assay of SHANK3 silenced PANC-1 cells treated with ERK and MEK inhibitors
Assay type: cell-based, human
Conditions: dose-dependent, 7.8 nM-8 μM gradient
Experimental: Proliferation Assay of SHANK3 Silenced PANC-1 Cells Treated with ERK and MEK Inhibitors
Cells were seeded on a 96-well plate (2000-5000 cells/well) a day before transfection and silenced the next day when cell confluence was approximately 30%. Next day after silencing, medium was changed to full medium containing DMSO (control), Trametinib, Selumetinib (ADZ6244) or selective ERK1/2 inhibitor (SCH772984) in dose-dependent manner (concentration gradient: 0, 7.8 nM, 15.5 nM 31.3 nM 62.5 nM, 125 nM, 250 nM, 500 nM, 1 μM, 2 μM, 4 μM and 8 μM). Proliferation was measured using IncuCyte S3 as described above.

SMILES	rescue of cell viability lost by SHANK3-silencing
Cn1cnc2c(F)c(Nc3ccc(Br)cc3Cl)c(C(=O)NOCCO)cc21 [Selumetinib]	abolished a loss of cell viability induced by SHANK3-silencing
CC(=O)Nc1cccc(-n2c(=O)n(C3CC3)c(=O)c3c(Nc4ccc(I)cc4F)n(C)c(=O)c(C)c32)c1 [Trametinib]	abolished a loss of cell viability induced by SHANK3-silencing
